# Measurements from the supplement of paper PMC3334620.
# Whole data set: some 33,000 sequences, median “E-score (-0.5 to 0.5)” near -0.015, cut for the highest 2% near 0.3. This is one part of the list.
# Target: T1, Abf1 (UniProt P14164)
# T1 sequence: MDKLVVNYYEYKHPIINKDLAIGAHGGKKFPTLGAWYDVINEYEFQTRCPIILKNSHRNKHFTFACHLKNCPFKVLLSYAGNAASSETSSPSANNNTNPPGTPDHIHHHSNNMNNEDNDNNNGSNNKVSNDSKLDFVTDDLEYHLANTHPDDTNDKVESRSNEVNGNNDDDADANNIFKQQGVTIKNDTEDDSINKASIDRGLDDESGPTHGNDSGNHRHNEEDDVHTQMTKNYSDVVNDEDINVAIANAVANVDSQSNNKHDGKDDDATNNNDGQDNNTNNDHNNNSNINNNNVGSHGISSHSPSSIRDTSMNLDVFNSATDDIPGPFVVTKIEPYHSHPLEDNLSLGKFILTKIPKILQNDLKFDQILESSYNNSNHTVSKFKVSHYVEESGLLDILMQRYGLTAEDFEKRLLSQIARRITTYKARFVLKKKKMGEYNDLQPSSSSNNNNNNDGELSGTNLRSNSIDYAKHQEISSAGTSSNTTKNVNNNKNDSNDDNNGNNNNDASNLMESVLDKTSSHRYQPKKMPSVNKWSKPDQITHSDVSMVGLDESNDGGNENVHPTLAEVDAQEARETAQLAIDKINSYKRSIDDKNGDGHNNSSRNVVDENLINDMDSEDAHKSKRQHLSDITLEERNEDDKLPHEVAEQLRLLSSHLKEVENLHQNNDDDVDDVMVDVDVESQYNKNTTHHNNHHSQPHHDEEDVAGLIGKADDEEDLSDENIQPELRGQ
# Experiment: PBM E-score (8-mer binding enrichment) (E-score (-0.5 to 0.5)); higher = stronger / more preferred TF binding
# Details: protein concentration: 200 nM; construct: GST-full length
# How it was run: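 Yeast transcription factors, full-length or as DNA-binding domains, were expressed with a GST tag using PURExpress in vitro transcription/translation. At about 100-200 nM they were applied to universal all-10-mer Agilent arrays, double-stranded by primer extension on fresh or once-stripped slides. Fluorescent anti-GST detected bound protein, and masliner normalised the scans. E-scores for ungapped eight-base words, pooled with reverse complements, came from the Universal PBM Analysis Suite.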
row,Sequence,PBM E-score
1,CCAGCACC,-0.289
2,CCTTACCA,-0.135
3,CTGTTAAC,0.0149
4,CACCTCTA,0.0679
5,GGCCAGTA,-0.125
6,AGATCCCG,0.117
7,CGATCAGC,-0.0419
8,AAGGTTAG,-0.108
9,ACTCTCAA,-0.0983
10,AGGCTACA,-0.265
11,CGTATTTA,0.335
12,CAGGGCCC,-0.279
13,AGCTTCTG,-0.16
14,GGCACTGA,-0.136
15,CTAACTTC,0.00313
16,AACGTGCC,-0.0898
17,AATGTGCG,0.0693
18,ACAAAGGC,-0.241
19,AGAACATC,0.0178
20,ATGAGGGC,-0.18
21,GCTTCAAA,0.17
22,GGACCTCA,-0.0312

row,Sequence,PBM E-score
1,GTCGCGAC,0.32
2,CCGCAAGC,-0.209
3,CGGTAAGC,-0.159
4,AGCTTAAA,0.0797
5,AACCTATG,-0.0835
6,ACTGATTC,-0.146
7,GAAATTCA,0.0636
8,CTTAGCAA,-0.168
9,CACGTGCA,0.139
10,GACATAAC,0.143
11,CACAGAGC,-0.139
12,AGATTTTG,0.125
13,ACTCAAGT,-0.0617
14,GGGCTACA,-0.109
15,TGCGGACA,-0.056
16,AGTGTAGG,0.029
17,GCGCTTAC,-0.11
18,AACAACAT,0.00732
19,CACCCGCA,-0.205
20,CATCGATA,0.232
21,GGCGCCAC,-0.0143
22,CAGCTTCC,-0.151

row,Sequence,PBM E-score
1,GTGGGAAC,0.00825
2,CGCCGACG,-0.0196
3,ACACCCCC,-0.266
4,GCCAGCAA,-0.252
5,GGCGGACC,-0.2
6,CCCGTTGA,0.0316
7,CTAAACAC,-0.0276
8,ACGACTAA,0.0761
9,AAAGTAAG,0.0225
10,CATCGGGC,0.0177
11,TGGATACA,-0.00372
12,ACCGCCCT,-0.266
13,CAGATTGC,-0.156
14,GGCGGGAA,-0.151
15,CTCATCCC,0.0517
16,ACGACTAT,0.298
17,CACCTCAG,-0.141
18,CGTGAGGC,-0.0028
19,CAAGGCCA,-0.0916
20,AGGGATCG,-0.119
21,ATTTAGTC,0.163
22,GCCAACTA,-0.0314

row,Sequence,PBM E-score
1,CCCGTGTC,0.0681
2,CAGAGGAA,-0.148
3,TGTCGTAA,0.103
4,CCATTCGC,-0.219
5,CGAAAAGC,-0.151
6,GATTCCGC,-0.0622
7,TCCAAGCA,-0.093
8,CACGGTCG,-0.0181
9,TCTAGGCA,-0.0845
10,CTGTCTAA,0.107
11,CGCGAGGA,-0.201
12,ACTTGTAA,0.0799
13,AAATAAGC,0.0205
14,GCTGGTCC,-0.0476
15,AATATGTC,0.19
16,CGGTACCG,0.0321
17,ATCGTAAC,0.258
18,ACGGTGGG,0.122
19,GGCTTTTA,-0.236
20,ACTAGGCC,-0.235

# Exported with bars between the fields: part of the list above
row | Sequence | PBM E-score
7 | GAAATTCA | 0.0636
8 | CTTAGCAA | -0.168
9 | CACGTGCA | 0.139
10 | GACATAAC | 0.143
